Measured values from patent US20230069835A1 (ACADEMIA SINICA, published 2023).
Results are given in words; binding and its absence hold for the method and conditions named. Binding seen in cells or lysates may run through a third protein. Some entries that bind do so weakly or less than the wild type.

Assays:
[1] = molecular target: T1, microsomal triglyceride transfer protein (MTTP), endogenous, in mouse intestinal epithelial cell lysates (mouse) (UniProt O08601); test: co-immunoprecipitation from IEC lysates with PRAP1- or MTTP-specific antibody, immunoblot
T1 sequence (looked up): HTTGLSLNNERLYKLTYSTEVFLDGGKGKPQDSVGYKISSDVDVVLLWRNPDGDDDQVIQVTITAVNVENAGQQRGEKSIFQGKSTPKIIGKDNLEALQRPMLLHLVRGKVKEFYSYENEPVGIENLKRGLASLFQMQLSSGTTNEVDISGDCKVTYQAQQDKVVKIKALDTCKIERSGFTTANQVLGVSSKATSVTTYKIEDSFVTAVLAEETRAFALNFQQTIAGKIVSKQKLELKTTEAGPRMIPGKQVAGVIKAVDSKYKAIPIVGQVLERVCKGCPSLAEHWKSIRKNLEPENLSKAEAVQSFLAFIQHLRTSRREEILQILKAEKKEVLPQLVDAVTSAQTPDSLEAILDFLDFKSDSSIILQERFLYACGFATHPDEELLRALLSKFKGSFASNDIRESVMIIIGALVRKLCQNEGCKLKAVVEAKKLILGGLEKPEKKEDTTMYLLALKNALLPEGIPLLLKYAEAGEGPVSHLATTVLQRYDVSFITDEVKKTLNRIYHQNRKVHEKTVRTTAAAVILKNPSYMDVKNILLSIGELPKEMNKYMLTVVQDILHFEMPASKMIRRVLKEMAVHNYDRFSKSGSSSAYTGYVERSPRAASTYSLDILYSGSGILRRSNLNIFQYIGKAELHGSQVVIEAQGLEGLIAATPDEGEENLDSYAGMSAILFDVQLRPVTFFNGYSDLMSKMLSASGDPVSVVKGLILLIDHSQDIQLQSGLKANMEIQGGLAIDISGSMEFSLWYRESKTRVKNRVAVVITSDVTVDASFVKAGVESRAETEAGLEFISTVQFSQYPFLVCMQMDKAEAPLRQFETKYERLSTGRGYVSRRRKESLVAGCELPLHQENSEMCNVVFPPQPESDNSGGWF

[2] = molecular target: T1, microsomal triglyceride transfer protein (MTTP), endogenous, in mouse intestinal epithelial cell lysates (mouse); test: co-immunoprecipitation from total intestinal cell lysates, immunoblot (FIG. 2A)
[3] = molecular target: T1, microsomal triglyceride transfer protein (MTTP), endogenous, in mouse intestinal epithelial cell lysates (mouse); test: co-immunoprecipitation from IEC lysates with MTTP antibody

binding [1]: binds
binding [2]: binds
binding [3]: binds
B1: endogenous wild-type PRAP1 in intestinal epithelial cells of control (PRAP1+/+) mice (protein)
chain: APAHQVPVKTKGKHVFPEQETEKVWDTRALEPLEKDNQLGPLLPEPKQKPAAAEEKRPDAMTWVETEDILSHLRSPLQGPELDLDSIDHPMSDDVQDEEVPQSRPILYRQVLQGPEEDLDHLAHSMEDS
